The source of these data is patent publication US20090104220A1, “Method to Make a Peptide-Carrier Conjugate with a High Immunogenicity” (priority 2003, published 2009).

The data set has as its system OMPC. Description: Conjugation load of peptide on OMPC by amino acid analysis of the conjugate. Also noted: species or system Neisseria meningitidis. To be noted: large-scale sSMCC conjugation, 17 h at 4° C.

As to STMGARSMTLTVQARQLβC—NH2 [PR], the level of incorporation is 200 moles peptide/mol OMPC.

“GLFGAIAGFIENGWEGMVDGCE-OH (GLFGAIAGFIENGWEGMVDGCEH) [HA2-25, pI-engineered HA2-9: basic tail deleted, C-terminal glutamate]” came in with a level of incorporation of 2436 moles peptide/mol OMPC. Take “Suc-STMGARSMTLTVQARQLβC—NH2 [Succinyl-PR]”: the level of incorporation turned out to be 1360 moles peptide/mol OMPC.
